Experimental data: patent US12509437B2, “Substituted thiophene carboxamides and derivatives thereof as microbicides” (Bayer Aktiengesellschaft, priority 2019, dated 2025)
Some of these results come from one statement about several compounds together.

Columns and labels:
[1] = system: salicylate responsive promoter sequence of the PR1 (pathogenesis-related protein I) gene (AT2G14610); test: Induction of defense gene expression in Arabidopsis thaliana (PR1 promoter-GFP reporter plants); assay type: in vivo; settings: 3rd day after spraying, mock treated leaves set as 1.00
Method in brief: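 Transgenic A. thaliana carrying GFP under the salicylate-responsive PR1 promoter, grown five days, then sprayed with compounds. Whole-plant fluorescence imaged and quantified on day 3 post-spray, expressed relative to mock-treated leaf background set at 1.00.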

Alternaria alternata = Alternaria alternata in vitro cell test; assay type: cell-based; settings: 5 days incubation
Method in brief: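 A. alternata spores in glucose/peptone/yeast-extract liquid medium were exposed to DMSO-solubilized compound (final DMSO ≤1%). After 5 days incubation, mycelium growth read spectrometrically; inhibition derived from absorbance relative to fungicide-free control wells.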

[2] = system: Colletotrichum lindemuthianum; test: Colletotrichum lindemuthianum in vitro cell test; assay type: cell-based; settings: 6 days incubation
Method in brief: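 Inhibition of spore germination and mycelial growth in liquid culture, read spectrometrically after 6 days incubation. Compounds added from DMSO (final ≤1%) to spores in glucose/peptone/yeast-extract medium; absorbance compared with untreated controls.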

[3] = system: Xanthomonas campestris pv. campestris; test: Xanthomonas campestris pv. campestris in vitro cell test; assay type: cell-based; settings: 24 h of incubation
Method in brief: (§1)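 Bacteria from liquid pre-culture diluted to set OD in LB broth and exposed to compounds dissolved in DMSO (final ≤1%). After 24 h, growth read by absorbance; inhibition derived relative to compound-free control wells.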

[4] = system: Pseudomonas syringae pv. tomato; test: Pseudomonas syringae pv. tomato in vitro cell test; assay type: cell-based; settings: 20 ppm of active ingredient; 24 h of incubation
Method in brief: as §1

## CCOC(=O)C(CSC(C)=O)NC(=O)c1sc(Cl)c(Cl)c1C (centres unmarked) [I.126]
[1]; 300 ppm
  relative fluorescence value: above 2
Alternaria alternata; 5 ppm of active ingredient
  efficacy (inhibition of fungal growth; no direct activity): ≤ 30%
[2]; 5 ppm of active ingredient
  efficacy (inhibition of fungal growth; no direct activity): ≤ 30%
[2]; 20 ppm of active ingredient
  efficacy (inhibition of fungal growth; no direct activity): ≤ 30%
[3]; 5 ppm of active ingredient
  efficacy (inhibition of bacteria growth; no direct activity): ≤ 30%
[3]; 20 ppm of active ingredient
  efficacy (inhibition of bacteria growth; no direct activity): ≤ 30%
[4]
  efficacy (inhibition of bacteria growth; no direct activity): ≤ 30%

## COC(=O)C(C)NC(=S)c1sc(Br)c(Br)c1C (centres unmarked) [I.149]
[1]; 300 ppm
  relative fluorescence value: above 2
Alternaria alternata; 5 ppm of active ingredient
  efficacy (inhibition of fungal growth; no direct activity): ≤ 30%
[2]; 5 ppm of active ingredient
  efficacy (inhibition of fungal growth; no direct activity): ≤ 30%
[3]; 5 ppm of active ingredient
  efficacy (inhibition of bacteria growth; no direct activity): ≤ 30%
[3]; 20 ppm of active ingredient
  efficacy (inhibition of bacteria growth; no direct activity): ≤ 30%
[4]
  efficacy (inhibition of bacteria growth; no direct activity): ≤ 30%

## CCOC(=O)C(C)NC(=S)c1sc(Br)c(Br)c1C (centres unmarked) [I.150]
[1]; 75 ppm
  relative fluorescence value: above 2
[1]; 300 ppm
  relative fluorescence value: above 2
Alternaria alternata; 5 ppm of active ingredient
  efficacy (inhibition of fungal growth; no direct activity): ≤ 30%
[2]; 5 ppm of active ingredient
  efficacy (inhibition of fungal growth; no direct activity): ≤ 30%
[3]; 5 ppm of active ingredient
  efficacy (inhibition of bacteria growth; no direct activity): ≤ 30%
[3]; 20 ppm of active ingredient
  efficacy (inhibition of bacteria growth; no direct activity): ≤ 30%
[4]
  efficacy (inhibition of bacteria growth; no direct activity): ≤ 30%

## Cc1c(C(=O)N[C@H]2CCCNC2=O)sc(Cl)c1Cl [I.162]
[1]; 300 ppm
  relative fluorescence value: above 2
Alternaria alternata; 5 ppm of active ingredient
  efficacy (inhibition of fungal growth; no direct activity): ≤ 30%
Alternaria alternata; 20 ppm of active ingredient
  efficacy (inhibition of fungal growth; no direct activity): ≤ 30%
[2]; 5 ppm of active ingredient
  efficacy (inhibition of fungal growth; no direct activity): ≤ 30%
[2]; 20 ppm of active ingredient
  efficacy (inhibition of fungal growth; no direct activity): ≤ 30%
[3]; 5 ppm of active ingredient
  efficacy (inhibition of bacteria growth; no direct activity): ≤ 30%
[3]; 20 ppm of active ingredient
  efficacy (inhibition of bacteria growth; no direct activity): ≤ 30%
[4]
  efficacy (inhibition of bacteria growth; no direct activity): ≤ 30%

## Cc1c(C(=O)N[C@H]2CCOC2=O)sc(Cl)c1Cl [I.167]
[1]; 300 ppm
  relative fluorescence value: above 2
Alternaria alternata; 5 ppm of active ingredient
  efficacy (inhibition of fungal growth; no direct activity): ≤ 30%
Alternaria alternata; 20 ppm of active ingredient
  efficacy (inhibition of fungal growth; no direct activity): ≤ 30%
[2]; 5 ppm of active ingredient
  efficacy (inhibition of fungal growth; no direct activity): ≤ 30%
[3]; 5 ppm of active ingredient
  efficacy (inhibition of bacteria growth; no direct activity): ≤ 30%
[3]; 20 ppm of active ingredient
  efficacy (inhibition of bacteria growth; no direct activity): ≤ 30%
[4]
  efficacy (inhibition of bacteria growth; no direct activity): ≤ 30%
